# These are yes or no findings as the source states them, for the method shown. Binding seen in cells or lysates may run through a third protein. Some entries that bind do so weakly or less than the wild type.
# The chains behind the UniProt entries cited, without tags or fusion partners.
# UniProt G3X9G7: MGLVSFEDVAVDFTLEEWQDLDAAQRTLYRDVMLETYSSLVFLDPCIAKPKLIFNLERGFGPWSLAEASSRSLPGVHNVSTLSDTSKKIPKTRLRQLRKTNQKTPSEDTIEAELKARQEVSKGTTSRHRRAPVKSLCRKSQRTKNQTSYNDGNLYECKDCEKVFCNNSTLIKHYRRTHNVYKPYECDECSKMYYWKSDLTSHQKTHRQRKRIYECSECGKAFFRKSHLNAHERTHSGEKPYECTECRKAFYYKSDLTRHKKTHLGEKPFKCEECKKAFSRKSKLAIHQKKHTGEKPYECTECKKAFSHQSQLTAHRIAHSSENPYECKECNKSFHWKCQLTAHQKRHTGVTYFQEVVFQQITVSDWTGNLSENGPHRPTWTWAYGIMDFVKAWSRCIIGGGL
# UniProt Q13263: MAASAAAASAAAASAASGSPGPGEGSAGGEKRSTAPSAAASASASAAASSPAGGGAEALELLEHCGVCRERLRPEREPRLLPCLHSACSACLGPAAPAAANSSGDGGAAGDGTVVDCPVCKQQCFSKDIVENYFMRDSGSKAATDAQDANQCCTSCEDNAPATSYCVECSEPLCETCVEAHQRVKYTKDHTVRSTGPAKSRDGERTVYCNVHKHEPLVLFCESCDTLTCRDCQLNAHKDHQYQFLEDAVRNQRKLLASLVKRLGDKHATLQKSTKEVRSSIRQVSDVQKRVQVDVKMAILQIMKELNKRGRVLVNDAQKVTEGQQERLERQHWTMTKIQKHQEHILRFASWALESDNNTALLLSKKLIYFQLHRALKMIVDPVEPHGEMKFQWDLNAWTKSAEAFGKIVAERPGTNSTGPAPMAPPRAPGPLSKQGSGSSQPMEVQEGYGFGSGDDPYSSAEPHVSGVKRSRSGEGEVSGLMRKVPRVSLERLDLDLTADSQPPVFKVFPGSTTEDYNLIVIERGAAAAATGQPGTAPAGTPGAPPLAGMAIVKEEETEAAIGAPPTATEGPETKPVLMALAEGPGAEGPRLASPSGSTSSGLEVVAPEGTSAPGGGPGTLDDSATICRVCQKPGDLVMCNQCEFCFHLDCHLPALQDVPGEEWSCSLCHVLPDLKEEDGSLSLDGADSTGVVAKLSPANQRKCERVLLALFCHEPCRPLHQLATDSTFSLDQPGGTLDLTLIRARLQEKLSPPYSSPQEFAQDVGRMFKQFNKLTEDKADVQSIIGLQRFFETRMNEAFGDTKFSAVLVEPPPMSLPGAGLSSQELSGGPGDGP
# Molecular target: ZFP809, HA-tagged (UniProt G3X9G7)
# Assay: co-IP; HEK293T cells transfected with HA-tagged ZFP plasmids, lysed on day 2 in 0.1% NP-40 buffer (50 mM tris-HCl pH 7.5, 150 mM NaCl, 10% glycerol, protease inhibitors); immunoprecipitated on anti-HA magnetic beads at 4°C overnight; Western blot for TRIM28
substance,measurement,value
KRAB-associated protein 1 (TRIM28) (from UniProt Q13263 1-835),binding,binds

# — article PMC9616502
